Assay results reported in paper PMC11649694.
Where cells or extracts were used, other partners may take part. For some of these results: Negatives hold for the conditions tested. For some of these results: Construct, isoform or probe ends are uncertain for at least one entry. For some of these results: At least one verdict rests on a figure or table, not on a statement of the authors. For some of these results: Weaker means in comparison with the reference protein, sequence or condition of that experiment.

Protein sequences, listed by entry. Tags and fused reporters are not part of them.
UniProt P10074, whole entry R611A: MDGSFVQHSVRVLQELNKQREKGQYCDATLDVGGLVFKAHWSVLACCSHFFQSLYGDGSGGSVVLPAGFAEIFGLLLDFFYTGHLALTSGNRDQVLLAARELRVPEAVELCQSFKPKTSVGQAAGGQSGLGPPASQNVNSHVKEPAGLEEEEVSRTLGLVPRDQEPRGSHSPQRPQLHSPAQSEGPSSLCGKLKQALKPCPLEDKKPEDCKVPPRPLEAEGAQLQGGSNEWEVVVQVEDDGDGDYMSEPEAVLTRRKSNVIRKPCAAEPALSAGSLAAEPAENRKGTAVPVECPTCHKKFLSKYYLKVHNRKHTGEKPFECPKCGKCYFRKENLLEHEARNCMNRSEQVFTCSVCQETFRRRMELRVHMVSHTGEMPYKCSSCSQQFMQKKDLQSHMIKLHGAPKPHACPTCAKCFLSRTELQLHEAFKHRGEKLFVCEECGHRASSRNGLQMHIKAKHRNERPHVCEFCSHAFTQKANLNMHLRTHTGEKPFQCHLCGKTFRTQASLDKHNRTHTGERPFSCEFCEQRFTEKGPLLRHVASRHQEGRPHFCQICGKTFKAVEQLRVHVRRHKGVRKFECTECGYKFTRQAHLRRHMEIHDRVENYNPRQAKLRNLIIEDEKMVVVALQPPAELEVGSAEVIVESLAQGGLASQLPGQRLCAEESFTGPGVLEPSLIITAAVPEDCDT
UniProt P10074, whole entry, stated change not applied: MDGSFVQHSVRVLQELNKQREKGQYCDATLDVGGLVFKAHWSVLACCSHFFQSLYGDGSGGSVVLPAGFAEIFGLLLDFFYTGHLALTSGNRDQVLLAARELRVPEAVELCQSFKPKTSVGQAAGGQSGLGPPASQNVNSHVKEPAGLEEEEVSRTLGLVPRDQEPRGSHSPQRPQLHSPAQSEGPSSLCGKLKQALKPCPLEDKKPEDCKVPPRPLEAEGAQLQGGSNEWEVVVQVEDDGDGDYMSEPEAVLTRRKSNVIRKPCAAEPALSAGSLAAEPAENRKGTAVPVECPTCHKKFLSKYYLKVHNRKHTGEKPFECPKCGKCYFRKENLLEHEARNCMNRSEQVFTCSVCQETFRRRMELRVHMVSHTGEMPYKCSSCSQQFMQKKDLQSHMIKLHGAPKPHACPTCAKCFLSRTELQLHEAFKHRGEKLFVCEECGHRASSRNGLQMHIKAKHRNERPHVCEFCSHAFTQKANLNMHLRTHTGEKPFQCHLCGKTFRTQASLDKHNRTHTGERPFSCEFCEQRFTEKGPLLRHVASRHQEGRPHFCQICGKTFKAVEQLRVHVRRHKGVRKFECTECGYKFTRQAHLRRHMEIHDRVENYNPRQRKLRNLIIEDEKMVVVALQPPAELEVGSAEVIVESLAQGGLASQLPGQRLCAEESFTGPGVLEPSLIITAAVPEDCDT
UniProt P10074, whole entry R611A/R614A: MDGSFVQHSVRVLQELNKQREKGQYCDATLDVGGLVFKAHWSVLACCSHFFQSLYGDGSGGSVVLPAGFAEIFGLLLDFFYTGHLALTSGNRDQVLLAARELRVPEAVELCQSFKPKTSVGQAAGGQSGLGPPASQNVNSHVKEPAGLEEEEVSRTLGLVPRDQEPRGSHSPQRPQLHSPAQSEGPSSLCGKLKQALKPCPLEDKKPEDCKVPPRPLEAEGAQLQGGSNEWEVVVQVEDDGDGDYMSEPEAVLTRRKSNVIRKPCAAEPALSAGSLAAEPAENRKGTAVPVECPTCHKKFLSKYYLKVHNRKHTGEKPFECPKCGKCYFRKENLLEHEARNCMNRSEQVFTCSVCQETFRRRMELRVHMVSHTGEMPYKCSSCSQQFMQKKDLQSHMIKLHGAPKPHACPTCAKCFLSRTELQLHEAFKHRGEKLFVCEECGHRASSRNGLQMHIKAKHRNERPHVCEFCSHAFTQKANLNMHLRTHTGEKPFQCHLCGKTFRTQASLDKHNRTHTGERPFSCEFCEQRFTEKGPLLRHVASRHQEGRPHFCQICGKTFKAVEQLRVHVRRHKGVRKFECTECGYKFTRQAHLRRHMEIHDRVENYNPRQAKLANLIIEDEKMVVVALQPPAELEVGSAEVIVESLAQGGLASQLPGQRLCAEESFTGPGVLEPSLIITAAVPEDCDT
UniProt P10074, whole entry R614A: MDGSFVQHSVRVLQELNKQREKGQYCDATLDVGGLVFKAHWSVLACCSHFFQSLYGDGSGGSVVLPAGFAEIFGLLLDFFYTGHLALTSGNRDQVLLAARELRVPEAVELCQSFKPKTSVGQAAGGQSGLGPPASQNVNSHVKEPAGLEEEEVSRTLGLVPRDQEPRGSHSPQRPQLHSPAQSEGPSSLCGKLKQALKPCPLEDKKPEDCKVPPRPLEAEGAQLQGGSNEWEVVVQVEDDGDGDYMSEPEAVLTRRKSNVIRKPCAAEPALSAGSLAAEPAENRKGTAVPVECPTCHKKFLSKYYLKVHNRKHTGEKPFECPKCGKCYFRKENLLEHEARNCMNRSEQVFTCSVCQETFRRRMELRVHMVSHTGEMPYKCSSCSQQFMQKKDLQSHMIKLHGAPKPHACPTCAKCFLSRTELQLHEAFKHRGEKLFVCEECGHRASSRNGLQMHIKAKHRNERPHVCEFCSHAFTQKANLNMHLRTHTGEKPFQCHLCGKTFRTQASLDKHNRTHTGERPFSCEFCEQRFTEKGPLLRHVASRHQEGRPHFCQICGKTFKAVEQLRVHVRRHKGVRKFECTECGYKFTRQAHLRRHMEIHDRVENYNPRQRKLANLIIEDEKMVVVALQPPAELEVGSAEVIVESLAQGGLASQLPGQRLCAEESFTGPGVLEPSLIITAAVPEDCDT

Assays:
Assay in all cases: DNA pull-down/immunoblot
FLAG-ZBTB48 R611A = FLAG-ZBTB48 R611A (UniProt P10074); conditions: Pull-down: 150 mM NaCl, 50 mM Tris-HCl pH 7.5, 5 mM MgCl2, 0.5% Igepal CA-630, 1 mM DTT, 20 ug salmon sperm DNA, 4 C 2 h; protein in a lysate after overexpression; residues 1-688; protein details: FLAG; label: desthiobiotin-dATP
FLAG-ZBTB48 ZnF8 mutant = FLAG-ZBTB48 ZnF8 mutant (UniProt P10074); conditions: Pull-down: 150 mM NaCl, 50 mM Tris-HCl pH 7.5, 5 mM MgCl2, 0.5% Igepal CA-630, 1 mM DTT, 20 ug salmon sperm DNA, 4 C 2 h; protein in a lysate after overexpression; residues 1-688; protein details: FLAG; label: desthiobiotin-dATP
[1] = target: FLAG-ZBTB48 delta ZnF1-9 + ZnF10 mutant (UniProt P10074); conditions: Pull-down: 150 mM NaCl, 50 mM Tris-HCl pH 7.5, 5 mM MgCl2, 0.5% Igepal CA-630, 1 mM DTT, 20 ug salmon sperm DNA, 4 C 2 h; protein in a lysate after overexpression; protein details: FLAG; label: desthiobiotin-dATP
FLAG-ZBTB48 R611A/R614A = FLAG-ZBTB48 R611A/R614A (UniProt P10074); conditions: Pull-down: 150 mM NaCl, 50 mM Tris-HCl pH 7.5, 5 mM MgCl2, 0.5% Igepal CA-630, 1 mM DTT, 20 ug salmon sperm DNA, 4 C 2 h; protein in a lysate after overexpression; residues 1-688; protein details: FLAG; label: desthiobiotin-dATP
FLAG-ZBTB48 ZnF4 mutant = FLAG-ZBTB48 ZnF4 mutant (UniProt P10074); conditions: Pull-down: 150 mM NaCl, 50 mM Tris-HCl pH 7.5, 5 mM MgCl2, 0.5% Igepal CA-630, 1 mM DTT, 20 ug salmon sperm DNA, 4 C 2 h; protein in a lysate after overexpression; residues 1-688; protein details: FLAG; label: desthiobiotin-dATP
[2] = target: ZBTB48 endogenous (U2OS nuclear extract) (Homo sapiens (U2OS cells)) (UniProt P10074); conditions: Pull-down: 150 mM NaCl, 50 mM Tris-HCl pH 7.5, 5 mM MgCl2, 0.5% Igepal CA-630, 1 mM DTT, 20 ug salmon sperm DNA, 4 C 2 h; protein in an extract; label: desthiobiotin-dATP
FLAG-ZBTB48 WT = FLAG-ZBTB48 WT (UniProt P10074); conditions: Pull-down: 150 mM NaCl, 50 mM Tris-HCl pH 7.5, 5 mM MgCl2, 0.5% Igepal CA-630, 1 mM DTT, 20 ug salmon sperm DNA, 4 C 2 h; protein in a lysate after overexpression; residues 1-688; protein details: FLAG; label: desthiobiotin-dATP
[3] = target: FLAG-ZBTB48 delta ZnF1-9 + ZnF11 mutant (UniProt P10074); conditions: Pull-down: 150 mM NaCl, 50 mM Tris-HCl pH 7.5, 5 mM MgCl2, 0.5% Igepal CA-630, 1 mM DTT, 20 ug salmon sperm DNA, 4 C 2 h; protein in a lysate after overexpression; protein details: FLAG; label: desthiobiotin-dATP
FLAG-ZBTB48 ZnF3 mutant = FLAG-ZBTB48 ZnF3 mutant (UniProt P10074); conditions: Pull-down: 150 mM NaCl, 50 mM Tris-HCl pH 7.5, 5 mM MgCl2, 0.5% Igepal CA-630, 1 mM DTT, 20 ug salmon sperm DNA, 4 C 2 h; protein in a lysate after overexpression; residues 1-688; protein details: FLAG; label: desthiobiotin-dATP
FLAG-ZBTB48 ZnF6 mutant = FLAG-ZBTB48 ZnF6 mutant (UniProt P10074); conditions: Pull-down: 150 mM NaCl, 50 mM Tris-HCl pH 7.5, 5 mM MgCl2, 0.5% Igepal CA-630, 1 mM DTT, 20 ug salmon sperm DNA, 4 C 2 h; protein in a lysate after overexpression; residues 1-688; protein details: FLAG; label: desthiobiotin-dATP
FLAG-ZBTB48 ZnF11 mutant = FLAG-ZBTB48 ZnF11 mutant (UniProt P10074); conditions: Pull-down: 150 mM NaCl, 50 mM Tris-HCl pH 7.5, 5 mM MgCl2, 0.5% Igepal CA-630, 1 mM DTT, 20 ug salmon sperm DNA, 4 C 2 h; protein in a lysate after overexpression; residues 1-688; protein details: FLAG; label: desthiobiotin-dATP
FLAG-ZBTB48 ZnF1 mutant = FLAG-ZBTB48 ZnF1 mutant (UniProt P10074); conditions: Pull-down: 150 mM NaCl, 50 mM Tris-HCl pH 7.5, 5 mM MgCl2, 0.5% Igepal CA-630, 1 mM DTT, 20 ug salmon sperm DNA, 4 C 2 h; protein in a lysate after overexpression; residues 1-688; protein details: FLAG; label: desthiobiotin-dATP
FLAG-ZBTB48 ZnF7 mutant = FLAG-ZBTB48 ZnF7 mutant (UniProt P10074); conditions: Pull-down: 150 mM NaCl, 50 mM Tris-HCl pH 7.5, 5 mM MgCl2, 0.5% Igepal CA-630, 1 mM DTT, 20 ug salmon sperm DNA, 4 C 2 h; protein in a lysate after overexpression; residues 1-688; protein details: FLAG; label: desthiobiotin-dATP
FLAG-ZBTB48 ZnF10 mutant = FLAG-ZBTB48 ZnF10 mutant (UniProt P10074); conditions: Pull-down: 150 mM NaCl, 50 mM Tris-HCl pH 7.5, 5 mM MgCl2, 0.5% Igepal CA-630, 1 mM DTT, 20 ug salmon sperm DNA, 4 C 2 h; protein in a lysate after overexpression; residues 1-688; protein details: FLAG; label: desthiobiotin-dATP
FLAG-ZBTB48 ZnF5 mutant = FLAG-ZBTB48 ZnF5 mutant (UniProt P10074); conditions: Pull-down: 150 mM NaCl, 50 mM Tris-HCl pH 7.5, 5 mM MgCl2, 0.5% Igepal CA-630, 1 mM DTT, 20 ug salmon sperm DNA, 4 C 2 h; protein in a lysate after overexpression; residues 1-688; protein details: FLAG; label: desthiobiotin-dATP
FLAG-ZBTB48 ZnF9 mutant = FLAG-ZBTB48 ZnF9 mutant (UniProt P10074); conditions: Pull-down: 150 mM NaCl, 50 mM Tris-HCl pH 7.5, 5 mM MgCl2, 0.5% Igepal CA-630, 1 mM DTT, 20 ug salmon sperm DNA, 4 C 2 h; protein in a lysate after overexpression; residues 1-688; protein details: FLAG; label: desthiobiotin-dATP
[4] = target: ZBTB48 endogenous (SUDHL4 nuclear extract) (Homo sapiens (SUDHL4 cells)) (UniProt P10074); conditions: Pull-down: 150 mM NaCl, 50 mM Tris-HCl pH 7.5, 5 mM MgCl2, 0.5% Igepal CA-630, 1 mM DTT, 20 ug salmon sperm DNA, 4 C 2 h; protein in an extract; label: desthiobiotin-dATP
FLAG-ZBTB48 R614A = FLAG-ZBTB48 R614A (UniProt P10074); conditions: Pull-down: 150 mM NaCl, 50 mM Tris-HCl pH 7.5, 5 mM MgCl2, 0.5% Igepal CA-630, 1 mM DTT, 20 ug salmon sperm DNA, 4 C 2 h; protein in a lysate after overexpression; residues 1-688; protein details: FLAG; label: desthiobiotin-dATP

Sequence: CTTAAGGGAGTGTGGCTTAAGGGAGTGTGGCTTAAGGGAGTGTGGCTTAAGGGAGTGTGG / AGCCACACTCCCTTAAGCCACACTCCCTTAAGCCACACTCCCTTAAGCCACACTCCCTTA [CIITA pIII probe b.1 (ARE-1)]
- binding result (FLAG-ZBTB48 R611A): no binding
- binding result (FLAG-ZBTB48 ZnF8 mutant): binds
- binding result [1]: binds more weakly
- binding result (FLAG-ZBTB48 R611A/R614A): no binding
- binding result (FLAG-ZBTB48 ZnF4 mutant): binds
- binding result [2]: binds
- binding result (FLAG-ZBTB48 WT): binds
- binding result [3]: no binding
- binding result (FLAG-ZBTB48 ZnF3 mutant): binds
- binding result (FLAG-ZBTB48 ZnF6 mutant): binds
- binding result (FLAG-ZBTB48 ZnF11 mutant): no binding
- binding result (FLAG-ZBTB48 ZnF1 mutant): binds
- binding result (FLAG-ZBTB48 ZnF7 mutant): binds
- binding result (FLAG-ZBTB48 ZnF10 mutant): binds more weakly
- binding result (FLAG-ZBTB48 ZnF5 mutant): binds
- binding result (FLAG-ZBTB48 ZnF9 mutant): binds
- binding result [4]: binds
- binding result (FLAG-ZBTB48 R614A): no binding

Sequence: GTCCACAGTAAGGAAGTGAAATTAATTTCAGAGGTGTGGGGAGGGCTTAAGGGAGTGTGG / ACCCACACTCCCTTAAGCCCTCCCCACACCTCTGAAATTAATTTCACTTCCTTACTGTGG [CIITA pIII probe 2]
- binding result [2]: binds

Sequence: TTCCCCCAACAGACTTTCTGTGCAACTTTCTGTCTTCACCAAATTCAGTCCACAGTAAGG / AACCTTACTGTGGACTGAATTTGGTGAAGACAGAAAGTTGCACAGAAAGTCTGTTGGGGG [CIITA pIII probe 1]
- binding result [2]: no binding

Sequence: CTTGGGGCCACCTTGCAGGGAGAGTTTTTTCTTGGGGCCACCTTGCAGGGAGAGTTTTTT / AGAAAAAACTCTCCCTGCAAGGTGGCCCCAAGAAAAAACTCTCCCTGCAAGGTGGCCCCA [CIITA pIII probe d (listed as e in Dataset EV5)]
- binding result [2]: no binding

Sequence: TTAATTTCAGAGGTGTGGGGAGGGCTTAAGGTTAATTTCAGAGGTGTGGGGAGGGCTTAAGG / AACCTTAAGCCCTCCCCACACCTCTGAAATTAACCTTAAGCCCTCCCCACACCTCTGAAATT [CIITA pIII probe a]
- binding result [2]: no binding
